The subject of this data set is HCT-116 cells. Description: WST-1 cell viability assay, HCT-116. The class given is cell-based, human. Particulars: HCT-116, 24 h. Here is the method:
Cell viability was analyzed with the WST-1 assay based on the cleavage of the stable tetrazolium salt WST-1 by the mitochondrial reductase system. Cells were seeded in the appropriate densities in a clear 96-well plate and settled overnight at 37°C in 5% CO2. The next day, the cells were treated with NFA or the substances of interest (≤0.1% dimethyl sulfoxide [DMSO]) and incubated for 24 or 48 h at 37°C in 5% CO2. Cell viability was analyzed by adding 10 µl WST-1 solution (Roche, Basel, Switzerland) and subsequently incubating the cells at 37°C for another 30–40 min. Absorbance was measured at 450 nm with a control wavelength at 620 nm using a plate reader.
Besides targeting the NF-κB pathway, the anti-tumorigenic effects of NFA can be observed by a reduction of colorectal cancer cell viability. […] Again, the cytotoxic effects of NFA were determined in HCT-116 and HT-29 colorectal cancer cells in the present study. […] HCT-116 cells were treated with increasing concentrations of NFA differing in chain length and Michael acceptor position for 24 h, and cell viability was determined using the WST-1 assay. Due to their prolonged cell division rate and their lack of sensitivity towards NFA ([Kühn et al., 2018]), HT-29 cells were treated for 48 h to gain improved NFA activity.
In general terms: Tetrazolium assays rely on reduction of a dye to a coloured formazan, in cell work by metabolically active cells.

We go through two molecules from PMC8637440, “Structural Modifications Yield Novel Insights Into the Intriguing Pharmacodynamic Potential of Anti-inflammatory Nitro-Fatty Acids” (Frontiers in Pharmacology, 2021).

The structures appear in SMILES notation.

Consider `CCCCC=C(CCCCCCCC(=O)O)[N+](=O)[O-]` [14.9.9, 9-nitro-tetradec-9-enoic acid], for which the “IC50 higher compared to 9NOA” value is recorded as 3–4 fold. To `CCC=C(CCCCCCCC(=O)O)[N+](=O)[O-]` [12.9.9, 9-nitro-dodec-9-enoic acid] belongs 3–4 fold.
